Measured values from US10253052B2, “HBED-bisphosphonates, radiometal conjugates and their use as theranostic agents” (Five Eleven Pharma Inc., priority 2015, dated 2019).
Some results were stated once for a whole list of compounds, not compound by compound. At least one structure is not confirmed: it was looked up by name or label, or the drawing left a doubt.

Test: In vitro binding to hydroxyapatite
Conditions: 20 mg hydroxyapatite in saline, 10 min at room temperature
Protocol: Hydroxyapatite (20 mg, Sigma-Aldrich, reagent grade powder) was incubated in isotonic saline (1 mL) for 24 h. Subsequently, either ^68Ga labeled 1a-h, 2, 3, BPAMD, or [^18F]NaF (1 μCi) was added to the hydroxyapatite suspension. After vortexing for 10 seconds, the suspension was incubated for 10 min at room temperature. The samples were then centrifuged at 10,000 rpm for 3 min and the supernatant was removed. The hydroxyapatite fraction was washed twice with saline (1 mL). Radioactivity in the combined supernatants and the hydroxyapatite fraction was measured using a gamma counter. The proportion of the ^68Ga complex binding to hydroxyapatite was determined as percent of ^68Ga absorbed to hydroxyapatite.

Row | Structure (SMILES) | Hydroxyapatite Binding (%)
1 | O=C([O-])CN(CCN(CC(=O)[O-])Cc1cc(CCC(=O)NC(P(=O)(O)O)P(=O)(O)O)ccc1[O-])Cc1cc(CCC(=O)NCCNC(=O)CN2CCN(CC(=O)O)CCN(CC(=O)O)CCN(CC(=O)O)CC2)ccc1[O-].[68Ga+3] [[^68Ga]1h] | > 90
2 | O=C([O-])CN1CCN(CC(=O)[O-])CCN(CC(=O)NCCNC(=O)CCc2ccc(O)c(CN(CCN(CC(=O)O)Cc3cc(CCC(=O)NC(P(=O)(O)O)P(=O)(O)O)ccc3O)CC(=O)O)c2)CCN(CC(=O)[O-])CC1.[177Lu+3] [[^177Lu]1h] | > 90
